Results are given in words; binding and its absence hold for the method and conditions named. Some binding calls cover weakened binding; strength is not graded here.

The chains behind the UniProt entries cited, without tags or fusion partners. Residues count along the entry.
UniProt Q04206: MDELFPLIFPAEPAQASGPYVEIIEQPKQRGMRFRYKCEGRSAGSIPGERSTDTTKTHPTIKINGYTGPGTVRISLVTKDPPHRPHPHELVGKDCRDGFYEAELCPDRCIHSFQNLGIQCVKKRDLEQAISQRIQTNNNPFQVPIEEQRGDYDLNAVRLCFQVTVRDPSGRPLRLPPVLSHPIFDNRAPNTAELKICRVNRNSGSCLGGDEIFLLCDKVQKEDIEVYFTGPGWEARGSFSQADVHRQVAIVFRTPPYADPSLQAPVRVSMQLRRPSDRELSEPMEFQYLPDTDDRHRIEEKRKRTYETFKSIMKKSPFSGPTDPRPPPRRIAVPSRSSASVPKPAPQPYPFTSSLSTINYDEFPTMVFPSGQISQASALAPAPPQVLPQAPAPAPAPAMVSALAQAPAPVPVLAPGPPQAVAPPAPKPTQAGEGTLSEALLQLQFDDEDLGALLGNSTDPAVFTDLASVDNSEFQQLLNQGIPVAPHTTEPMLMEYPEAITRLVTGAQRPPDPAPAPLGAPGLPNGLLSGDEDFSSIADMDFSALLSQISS
UniProt P19838, residues 1-433: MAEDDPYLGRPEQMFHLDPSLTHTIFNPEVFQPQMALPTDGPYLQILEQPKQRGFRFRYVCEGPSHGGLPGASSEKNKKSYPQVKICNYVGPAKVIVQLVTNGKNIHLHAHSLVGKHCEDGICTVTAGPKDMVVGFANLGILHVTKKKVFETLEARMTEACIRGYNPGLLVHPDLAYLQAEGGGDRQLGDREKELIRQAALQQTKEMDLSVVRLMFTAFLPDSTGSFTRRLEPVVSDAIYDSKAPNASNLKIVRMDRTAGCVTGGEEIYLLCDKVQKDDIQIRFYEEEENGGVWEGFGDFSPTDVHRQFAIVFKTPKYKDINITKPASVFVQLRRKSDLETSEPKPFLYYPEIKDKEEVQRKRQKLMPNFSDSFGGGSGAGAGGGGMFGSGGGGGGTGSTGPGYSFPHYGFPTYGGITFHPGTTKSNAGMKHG

These results are taken from article PMC3465347, “Regulation of NF-κB Activation through a Novel PI-3K-Independent and PKA/Akt-Dependent Pathway in Human Umbilical Vein Endothelial Cells” (PLoS ONE, 2012).

This assay addresses NF-κB p65 subunit (human (endogenous in HUVECs)) (UniProt Q04206). As to the kind of experiment: native gel or EMSA; supershift: nuclear extracts of TNF-α-stimulated HUVECs incubated with antibodies against p50 or p65 for 15 mins at 37°C, then EMSA with labelled NF-κB oligonucleotide. In general terms: Mobility shift assays separate free from complexed probe on a gel.

On to “NF-κB p50 subunit (from UniProt P19838 1-433)”, for which the binding entry is “binds”.
